Results taken from US8809001B2, “High throughput assays for inhibitors and activators of PAQR receptors” (University of Florida Research Foundation, Inc., priority 2007, dated 2014).
At least one structure is not confirmed: it was looked up by name or label, or the drawing left a doubt.

What was measured:
mPRγ = target: T1, mPRγ (Homo sapiens, UniProt Q9NXK6); assay: FET3-lacZ reporter repression in yeast expressing mPRγ; format: cell-based; details: logarithm of EC50 in nM; mPRγ column of Table 4; ligand alone
T1 construct: Full length and truncated mPRγ and mPRα were expressed in wild type cells grown in 2% galactose from the pGREG536 vector; expressed in transfected cells; host or cells: Saccharomyces cerevisiae (BY4742 wild type; also gpa mutants), GAL1-driven plasmids
T1 sequence (Q9NXK6 1-330): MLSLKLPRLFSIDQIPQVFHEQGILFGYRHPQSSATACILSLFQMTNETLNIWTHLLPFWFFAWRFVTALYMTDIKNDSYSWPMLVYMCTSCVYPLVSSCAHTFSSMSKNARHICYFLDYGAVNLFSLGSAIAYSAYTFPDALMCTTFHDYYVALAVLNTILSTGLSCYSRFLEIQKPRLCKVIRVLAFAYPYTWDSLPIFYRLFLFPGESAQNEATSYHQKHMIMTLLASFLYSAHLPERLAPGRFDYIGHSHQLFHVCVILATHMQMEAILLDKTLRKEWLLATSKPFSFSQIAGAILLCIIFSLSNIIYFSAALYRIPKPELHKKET
Description: Plasmids and primers. Human PAQRs were cloned into various vectors by PCR from commercially/publically available cDNAs. PAQRs were cloned into the pYES260 (Melcher, 2000), pRS316 (Liu et al., 1992) or pGREG536 (Jansen et al., 2005) expression vectors using gap repair. The pJK90 plasmid containing a Dual Topology Reporter (DTR)-tagged OST4 gene driven by the constitutive TPI1 promoter was kindly provided by Dr. Gunnar von Heijne (Stockholm University) (Kim et al., 2003). The OST4 open reading frame in pJK90 was replaced with the PAQR6 and mPRα open reading frames by gap repair. Primers for all cloning reactions are listed herein. Proteins expressed in pYES260 have an N-terminal 6×-histidine tag followed by a TEV protease cleavage site. Proteins expressed in pGREG536 have an N-terminal 7×-HA tag. Proteins expressed in the pRS316 vector are untagged. The pYES260, pRS316 and pGREG536 vectors allow for galactose-inducible expression via the GAL1 promoter. […] The FET3-lacZ plasmid was previously described (Kupchak et al., 2007). […]
Assays and growth conditions. […] Cells were allowed to grow to mid-log phase at which time the activity of the FET3 gene was monitored using a FET3-lacZ promoter-reporter construct. lacZ activities are presented as a percentage of activity seen in untreated cells expressing the appropriate empty expression vector control. […]

mPRα = target: T2, mPRα (Homo sapiens, UniProt Q86WK9); format: cell-based; details: logarithm of EC50 in nM; mPRα column of Table 4; ligand alone
T2 construct: Full length and truncated mPRγ and mPRα were expressed in wild type cells grown in 2% galactose from the pGREG536 vector; expressed in transfected cells; host or cells: Saccharomyces cerevisiae (BY4742 wild type; also gpa mutants), GAL1-driven plasmids (TPI1 promoter in pJK90)
T2 sequence (Q86WK9 1-346): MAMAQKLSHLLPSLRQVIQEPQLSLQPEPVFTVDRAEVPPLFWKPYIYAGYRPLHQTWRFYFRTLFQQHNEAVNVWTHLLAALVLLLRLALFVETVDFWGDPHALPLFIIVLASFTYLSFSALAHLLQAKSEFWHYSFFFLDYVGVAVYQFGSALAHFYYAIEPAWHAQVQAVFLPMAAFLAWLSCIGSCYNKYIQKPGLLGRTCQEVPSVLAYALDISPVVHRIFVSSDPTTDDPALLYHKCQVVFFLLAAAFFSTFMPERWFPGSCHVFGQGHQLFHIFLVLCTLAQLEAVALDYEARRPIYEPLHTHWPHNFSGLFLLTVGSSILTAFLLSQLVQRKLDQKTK
Description: Plasmids and primers. Human PAQRs were cloned into various vectors by PCR from commercially/publically available cDNAs. […] The OST4 open reading frame in pJK90 was replaced with the PAQR6 and mPRα open reading frames by gap repair. Primers for all cloning reactions are listed herein. Proteins expressed in pYES260 have an N-terminal 6×-histidine tag followed by a TEV protease cleavage site. Proteins expressed in pGREG536 have an N-terminal 7×-HA tag. Proteins expressed in the pRS316 vector are untagged. The pYES260, pRS316 and pGREG536 vectors allow for galactose-inducible expression via the GAL1 promoter. […] A pRS316-based plasmid containing the STE2 gene under the control of the GAL1 promoter (Feng et al., 2000) was kindly provided by Dr. Nicholas G. Davis (Wayne State University).
Assays and growth conditions. Strains were maintained using standard protocol and grown in synthetic defined (SD) media with the appropriate amino acids to match the auxotrophies of the individual strains. […] In brief, overnights of cells grown in SD-glucose media were re-inoculated into iron-deficient LIM to induce the expression of FET3. […] All ligands were added to the growth medium upon re-inoculation into LIM. […]

## CC(=O)[C@@]1(O)CC[C@H]2[C@@H]3CCC4=CC(=O)CC[C@]4(C)[C@H]3CC[C@@]21C [17α-hydroxyprogesterone]
mPRγ
  log EC50 nM: 0.97 ± 0.63 nM
mPRα
  log EC50 nM: 1.01 ± 0.44 nM
